From publication PMC10723529
Results are given in words; binding and its absence hold for the method and conditions named. Some results given as binding are weak or reduced against the parent protein; the word gives no strength.

Chains of the proteins cited; added tags and fusions are not shown. Residues count along the entry.
UniProt P06748, residues 119-240: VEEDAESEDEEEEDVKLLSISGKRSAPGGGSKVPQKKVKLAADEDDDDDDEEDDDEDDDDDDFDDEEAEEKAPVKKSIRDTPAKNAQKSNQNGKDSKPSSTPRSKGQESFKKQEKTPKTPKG
UniProt Q8N726: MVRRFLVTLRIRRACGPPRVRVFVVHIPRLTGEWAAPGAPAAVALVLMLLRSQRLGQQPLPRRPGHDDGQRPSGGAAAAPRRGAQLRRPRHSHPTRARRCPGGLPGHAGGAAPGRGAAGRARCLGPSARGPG

Target: NPM1 IDR (amino acids 119–240) (UniProt P06748)
Assay: solution NMR of the phase-separated condensed phase; condensed phase from 50 uM [^13C,^15N]-p14^ARF and 50 uM NPM-IDR; 10 mM sodium phosphate pH 7.0, 150 mM NaCl, 2 mM TCEP, 1.67% DMSO-d6; pelleted by ultracentrifugation, light phase removed; both purified

- binding: binds
Substance: p14 Alternative Reading Frame tumor suppressor protein (p14^ARF), wild type (from UniProt Q8N726 1-132)
